{"source": "patent US4318904A", "about": "“Peptide affinity labels for thrombin and other trypsin-like proteases” (Research Corporation, priority 1980, dated 1982)", "tested_on": "rabbits", "experiment": "Thrombosis in rabbits after intravenous infusion of thrombin", "assay_type": "in vivo", "note": "At least one peptide structure holds a part that was inferred or is arguable (an end, a ring closure or a residue).", "data": [{"smiles": "N=C(N)NCCC[C@H](NC(=O)[C@@H]1CCCN1C(=O)[C@H](N)Cc1ccccc1)C(=O)CCl", "note": "[D-Phe-Pro-ArgCH2 Cl, D-Phe-Pro-Arg-CH2 Cl.2HCl]", "values": [{"measurement": "effect of thrombin infusion on the animal after inhibitor", "setting": "1 mg inhibitor i.v., then 1,200 NIH units thrombin i.v. over 5 min, without inhibitor death by massive thrombosis", "result": "had no effect on the animal"}, {"measurement": "effect on thrombosis in rabbits", "setting": "rabbits", "result": "blocks thrombosis"}]}]}
